Laboratory results published in patent publication US20090253634A1, “Methods and Compositions for the Treatment of Gastrointestinal Disorders” (MICROBIA, INC., priority 2005, published 2009).
Like-named read-outs stand apart in the source and are kept apart here. For some assays here: At least one peptide structure holds a part that was inferred or is arguable (an end, a ring closure or a residue). For some assays here: At least one compound was matched to its structure with a doubt left. Bridge positions count the residues as written; N and C are the ends. Peptide text beside a SMILES is read from it.

The chains behind the UniProt entries cited, without tags or fusion partners. Residues count along the entry.
UniProt P25092, 24-1073: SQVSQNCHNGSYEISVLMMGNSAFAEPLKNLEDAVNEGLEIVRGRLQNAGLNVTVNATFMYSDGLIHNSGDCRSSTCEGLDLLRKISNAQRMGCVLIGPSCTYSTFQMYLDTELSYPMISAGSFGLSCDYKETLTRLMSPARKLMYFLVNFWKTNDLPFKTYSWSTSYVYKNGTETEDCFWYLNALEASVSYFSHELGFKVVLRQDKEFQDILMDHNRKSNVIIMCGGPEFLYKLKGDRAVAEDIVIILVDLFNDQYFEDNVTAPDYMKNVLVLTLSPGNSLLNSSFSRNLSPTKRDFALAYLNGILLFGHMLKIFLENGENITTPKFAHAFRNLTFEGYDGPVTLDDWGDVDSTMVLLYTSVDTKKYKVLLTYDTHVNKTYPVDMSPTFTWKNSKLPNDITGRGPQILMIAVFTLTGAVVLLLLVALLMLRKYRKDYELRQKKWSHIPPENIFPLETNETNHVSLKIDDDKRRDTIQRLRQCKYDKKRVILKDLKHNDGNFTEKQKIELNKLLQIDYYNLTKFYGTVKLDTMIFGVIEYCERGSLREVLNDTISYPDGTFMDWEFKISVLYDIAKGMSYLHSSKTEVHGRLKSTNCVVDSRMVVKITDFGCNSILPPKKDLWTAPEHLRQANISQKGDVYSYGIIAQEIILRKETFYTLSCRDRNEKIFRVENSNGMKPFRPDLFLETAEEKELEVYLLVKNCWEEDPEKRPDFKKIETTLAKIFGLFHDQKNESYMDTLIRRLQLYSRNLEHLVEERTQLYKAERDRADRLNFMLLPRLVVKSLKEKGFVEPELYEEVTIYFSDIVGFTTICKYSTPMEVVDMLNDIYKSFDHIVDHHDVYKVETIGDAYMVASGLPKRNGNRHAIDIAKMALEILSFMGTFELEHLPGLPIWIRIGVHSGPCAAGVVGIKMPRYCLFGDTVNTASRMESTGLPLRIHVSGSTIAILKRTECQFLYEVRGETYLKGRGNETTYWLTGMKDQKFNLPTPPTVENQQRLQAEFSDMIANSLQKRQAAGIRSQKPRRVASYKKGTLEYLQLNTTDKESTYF

Tests used:
[1] = molecular target: T1, GC-C receptors on the cell surface of human colonic cells (T84 cells) (Homo sapiens, UniProt P25092); test: competitive radioligand-binding assay on T84 cells
T1 construct: 2.5×10^5 T84 cells (0.25 mg protein); host or cells: T84 human colonic cells
Method: The radiolabeled tracer used in these experiments was ^125I-SEQ ID NO:7. To determine binding constants, competitive inhibition of binding was used. T84 cells were cultured in T-150 plastic flasks in DMEM and Ham's F-12 medium containing 5% fetal bovine serum. Monolayers at 60-70% confluency (approximately 10^7 cells) were collected by gentle scraping followed by centrifugation, and washed twice in 50 mL of phosphate-buffered saline (PBS). The cells were resuspended in 1 mL DMEM containing 20 mM […] (Hepes), pH 7.0 and 0.5% bovine serum albumin (BSA). T84 cells were incubated with a constant amount of ^125I-SEQ ID NO:7 containing various concentrations of cold competitor. Free ^125I-SEQ ID NO:7 was separated from bound tracer by rapid suction filtration. The binding reactions were carried out in 1.5 mL microfuge tubes in 0.24 mL of DMEM/20 mM Hepes pH 7.0/0.5% BSA containing: 2.5×10^5 T84 cells (0.25 mg protein), 200,000 cpm ^125I-SEQ ID NO:7 (41 fmol, 170 pM), and 0.01 to 1,000 nM competitor. Binding assays at pH 5.0 were done in DMEM/20 mM 2-(N-morpholino) ethanesulfonic acid (Mes), pH 5.0. Binding assays in pH 8.0 were done in DMEM/20 mM Hepes/50 mM sodium bicarbonate pH 8.0. One sample contained no competitor (B0) and another contained no cells. After incubation at 37° C. for 1 h, the reaction mixtures were applied to Whatman GF/B glass-fiber filters by suction filtration. The filters were then rinsed with 10 mL ice-cold PBS buffer, inserted into plastic tubes, and added to 2 mL scintillation fluid. Radioactivity was measured in a LS 6500 liquid scintillation counter (Beckman-Coulter). The percent bound in each sample is calculated by the equation:
% B/B0=(sample cpm−no cells cpm)×100/(B0cpm−no cells cpm)
Competitive radioligand-binding curves were generated using the Graphpad PRISM™ computer program. […] The apparent dissociation equilibrium constant (Ki) for each competitor was obtained from the IC50 values and the previously reported estimate of the dissociation constant for the radioligand, Kd≅15 nM (Hamra et al. 1997 PNAS 2705-10) and the method of Cheng and Prusoff 1973 Biochem Pharmacol 22:3099-108. Using a two site model, high and low affinity-binding sites were identified on T84 cells (Ki1 and Ki2) for all the test agents. At pH 7.0. for SEQ ID NO:3 Ki1 ranged from 0.89-1.23 nM and Ki2 ranged from 88.9-156 nM.

[2] = absorbability study in mice, ELISA detection; format: in vivo, CD1 mice; conditions: IV versus oral
[3] = bioavailability study in mice, LCMS detection; format: in vivo; conditions: IV versus oral
[4] = oral bioavailability in mice, radioimmunoassay (RIA) detection; format: in vivo, CD-1 mice
Method: Oral bioavailability was also determined using a radioimmunoassay (RIA) detection method. Female CD-1 mice (Charles River, Wilmington, Mass.) weighing approximately 25g (7-8 weeks old) or female CD rats (Charles River, Wilmington, Mass.) weighing approximately 153 g were included in this study. Monoclonal antibody, 20C1 (Brandwein et al. 1985 Infect Immun. 47:242-246), which recognizes SEQ ID NO:7 and ^125I labeled-SEQ ID NO:7, a labeled tracer, were used in these experiments. The labeled tracer was purified by HPLC using a Waters C-18u Bondapak® column (25 cm) previously equilibrated with 10 mM ammonium acetate pH 5.8. […] Blood was drawn from all dosed animals by retro-orbital eye bleeding at specific intervals and test compound levels were analyzed by radioimmunoassay (RIA). […] Radioactivity was measured in a LS 6500 scintillation counter (Beckman-Coulter). The binding efficiency is defined as the percent radioactivity in the B0 sample compared to the input counts. The percent bound in each sample was calculated by the equation: […]
A standard curve was prepared by plotting % B/B0 as a function of the log SEQ ID NO:3 concentration. […] The area under the curve from T=0 to 4 hours (AUC0-4h) was calculated by the software for both p.o. and i.v. dosed animals. […] Oral Bioavailabilty (F) is calculated using the equation: […]

gastrointestinal transit = test: rat gastrointestinal transit (GIT) assay; format: in vivo, CD rats; conditions: female rats, similar effects in male rats; FIG. 4e
Method: In order to determine whether the peptides increase the rate of gastrointestinal transit, the peptides and controls were tested using a murine gastrointestinal transit (GIT) assay (Moon et al. Infection and Immunity 25:127, 1979). In this assay, charcoal, which can be readily visualized in the gastrointestinal tract is administered to mice after the administration of a test compound. The distance traveled by the charcoal is measured and expressed as a percentage of the total length of the […].
Mice were fasted with free access to water for 12 to 16 hours before the treatment with peptide or control buffer. The peptides were orally administered at 1 μg/kg-1 mg/kg of peptide in buffer ([…] pH 7.5) 7 minutes before being given an oral dose of 5% Activated Carbon (Aldrich 242276-250G). Control mice were administered buffer only before being given a dose of Activated Carbon. After 15 minutes, the mice were sacrificed and their intestines from the stomach to the cecum were dissected. The total length of the intestine as well as the distance traveled from the stomach to the charcoal front was measured for each animal and the results are expressed as the percent of the total length of the intestine traveled by the charcoal front. All results are reported as the average of 10 mice±standard deviation. […] P-values are calculated using a two-sided T-Test assuming unequal variances. […]

Row | Compound | Ki ([1]; read-out: Ki1 (high affinity site), pH 5.0) [nM] | Ki ([1]; read-out: Ki1 (high affinity site), pH 7.0, T84 cells, tracer 125I-SEQ ID NO:7) [nM] | Ki ([1]; read-out: Ki1 (high affinity site), pH 8.0) [nM] | Ki ([1]; read-out: Ki2 (low affinity site), pH 5.0) [nM] | Ki ([1]; read-out: Ki2 (low affinity site), pH 7.0, T84 cells, tracer 125I-SEQ ID NO:7) [nM] | Ki ([1]; read-out: Ki2 (low affinity site), pH 8.0) [nM] | bioavailability [2] [%] | bioavailability [3] [%] | AUCp.o.,(0-4h) ([4]; 8 mg/kg oral) [µg·min/mL] | bioavailability (F) ([4]; 8 mg/kg, over 4 hours) | intestinal transit, dose dependence (gastrointestinal transit)
1 | C[C@@H]1NC(=O)[C@@H]2CCCN2C(=O)[C@H](CC(N)=O)NC(=O)[C@@H]2CSSC[C@H](N)C(=O)N[C@H]3CSSC[C@H](NC1=O)C(=O)N[C@@H]([C@@H](C)O)C(=O)NCC(=O)N[C@H](C(=O)N[C@@H](Cc1ccc(O)cc1)C(=O)O)CSSC[C@H](NC(=O)[C@H](Cc1ccc(O)cc1)NC(=O)[C@H](CCC(=O)O)NC3=O)C(=O)N2 [SEQ ID NO:3] (H-CCEYCCNPACTGCY-OH; disulfide 1-6, 2-10, 5-13; N-terminus and C-terminus assumed) | 1.38 | 0.89 to 1.23 | 0.6 | 17 | 88.9 to 156 | 94.4 | < 2.2 | < 0.11 | ≤ 0.69 | not more than 0.04% | 
2 | C[C@@H]1NC(=O)[C@@H]2CCCN2C(=O)[C@H](CC(N)=O)NC(=O)[C@@H]2CSSC[C@H](N)C(=O)N[C@H]3CSSC[C@H](NC1=O)C(=O)N[C@@H]([C@@H](C)O)C(=O)NCC(=O)N[C@H](C(=O)O)CSSC[C@H](NC(=O)[C@H](Cc1ccc(O)cc1)NC(=O)[C@H](CCC(=O)O)NC3=O)C(=O)N2 [SEQ ID NO:6] (H-CCEYCCNPACTGC-OH; disulfide 1-6, 2-10, 5-13) |  |  |  |  |  |  |  |  |  |  | increases in a dose dependent manner
